The text below walks through data of patent US20120076796A1 (Ablynx, published 2012).

The chains behind the UniProt entries cited, without tags or fusion partners. Residues count along the entry.
UniProt O15123, residues 19-496: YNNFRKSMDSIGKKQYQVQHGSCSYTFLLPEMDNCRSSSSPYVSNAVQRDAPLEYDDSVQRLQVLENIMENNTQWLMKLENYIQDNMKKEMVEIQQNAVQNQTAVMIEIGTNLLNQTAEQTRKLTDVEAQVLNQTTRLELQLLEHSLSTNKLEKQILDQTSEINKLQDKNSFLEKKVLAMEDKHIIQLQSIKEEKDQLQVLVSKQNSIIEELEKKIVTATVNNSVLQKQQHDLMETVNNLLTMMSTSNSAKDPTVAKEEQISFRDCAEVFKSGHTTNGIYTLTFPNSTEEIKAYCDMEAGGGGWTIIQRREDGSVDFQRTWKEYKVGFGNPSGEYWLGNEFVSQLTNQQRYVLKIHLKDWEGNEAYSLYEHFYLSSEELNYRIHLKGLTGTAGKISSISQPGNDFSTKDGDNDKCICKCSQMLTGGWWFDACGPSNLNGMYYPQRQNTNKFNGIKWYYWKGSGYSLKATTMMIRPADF

The target in assay [1] is T1, Recombinant human Angiopoietin-like-4 (R&D Systems Cat No 3485-AN) (human) (UniProt Q9BY76).
T1 sequence (looked up): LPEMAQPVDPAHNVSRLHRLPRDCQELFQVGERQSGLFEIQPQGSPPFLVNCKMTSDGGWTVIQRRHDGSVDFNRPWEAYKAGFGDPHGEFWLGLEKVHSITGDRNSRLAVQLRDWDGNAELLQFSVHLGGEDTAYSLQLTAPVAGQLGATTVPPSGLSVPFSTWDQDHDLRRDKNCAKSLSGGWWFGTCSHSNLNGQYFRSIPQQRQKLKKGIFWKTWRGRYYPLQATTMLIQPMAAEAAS
Nature of the assay: phage ELISA on immobilized Angiopoietin-like-4, anti-M13-HRP. Background: ELISA stands for enzyme-linked immunosorbent assay.

The target in assay [2] is T1, Recombinant human Angiopoietin-like-4 (R&D Systems Cat No 3485-AN) (human). The assay is described as follows: phage ELISA on coated Angptl4: 10 ul monoclonal phage supernatant in 100 ul, anti-M13-HRP, OD 450 nm.
Assay [3] has as its target biotinylated rh Ang2 (R&D Systems Cat No BT623, Lot No BNR174091) (human) (UniProt O15123). The assay is described as follows: competition ELISA: 0.05 ug/ml biotinylated Ang2 pre-incubated with 10 ul periplasmic extract, then on coated Tie2/Fc (4 ug/ml); bound Ang2 detected with extravidin-HRP; blocked partner: Tie2/Fc.
In assay [4] the target is Recombinant human Angiopoietin-2 (R&D Systems Cat No 623-AN/CF) (human) (UniProt O15123). The assay is described as follows: phage ELISA, 0.2 ug/ml Ang2 coated, anti-M13-HRP.
Assay [5] shares this target. Nature of the assay: phage ELISA: 10 ul monoclonal phage supernatant in 100 ul on 0.2 ug/ml coated Ang2, anti-M13-HRP, OD 450 nm.

No constants are given. Whether binding was seen depends on the method and setting. Some results given as binding are weak or reduced against the parent protein; the word gives no strength.

B1: 171-E4 (VHH)
VHH: EVQLVESGGGLVQPGGSLRLSCAASGRTFSTFNTYSMGWFRQAPGKEREFVAAISRSGNVTPYADSVKGRFAISRDNAKNTLTLQMNSLKPEDTAVYYCAASKIGIASTIRYYDYWGQGTQVTVSS
As for B1, the binding entry in assay [1] and in assay [2] was “binds” in each case.

B2: 171-C4 (VHH)
VHH: EVQLVESGGGLVQPGGSLRLSCAASGRTFSTFNTYSMGWFRQAPGKEREFVAAISRGGNVTPYADSVKGRFAISRDNAKNTVALQMNSLKPEDTAVYYCAASKIGIASTIRYYDYWGQGTQVTVSS
As to B2, the binding result in assay [1] and in assay [2] was “binds” throughout.

B3: 171-E2 (VHH)
VHH: EVQLVESGGGLVQAGASLRLSCVDSGDTFSWYAMGWFRQQAPGKEREFVSSISGGGSNTVYADSVKGRFTVSRDRAKNTVYLQMNSLKPEDSGVYYCAADKRWGSPATSRSTHDYDFWGQGTQVTVSS
Consider B3, for which the binding entry in assay [1] and in assay [2] was “binds” each time.

B4: 171-G4 (VHH)
VHH: EVQLVESGGGLVQAGGSLRLSCVASGDTFNWYAMGWFRQQAPGKEREFVSAISGGGSNIVYVDSVKGRFTVSRDRIKNTVYLQMNSLKPEDSGVYYCAVDKRWGSPATSRSTHDYDFWGQGTQVTVSS
As for B4, the binding result in assay [1] and in assay [2] was “binds” each time.

B5: 170-B1 (VHH)
VHH: EVQLVESGGGLVQAGGSLRLSCAASESIFSLYVTGWYRQAPGKQRELVASITSGGSLTYADSVKGRFTISRDNAKNTVHLQMHSLKPEDTAVYFCNGRSIGVDDMPYVYWGQGTQVTVSS
In the case of B5, the binding result in assay [1] and in assay [2] was “binds” each time.

B6: 171-F3 (VHH)
VHH: EVQLVESGGGLVQTGGSLRLSCAASGRSFNLYYMGWFRQAPGREREFVAGISGSGGSTFYGDSVKGRFTISRDNLKNTMYLQMNSLKPEDTAVYYCQSSRRIITNPREYGYWGQGTQVTVSS
Consider B6, for which the binding result in assay [1] and in assay [2] was “binds” throughout.

B7: 171-D2 (VHH)
VHH: EVQLVESGGGLVQAGGSLRLSCAASVLTFGTYTVGWFRQAPGKEREFVSIITGSGTYNDYADSVKGRFTVSRDNAKNTVYLQMNSLKSEDTAVYYCAARHWGMFSRSENDYNYWGQGTQVTVSS
As to B7, the binding result in assay [1] and in assay [2] was “binds” throughout.

B8: 170-C2 (VHH)
VHH: EVQLVESGGGLVQPGGSLRLSCAASGFTFSLNAMTWVRQAPGKGLEWVSTISSGGWTTSYADSVKGRFTISRDNAKNTLYLQMNSLKPEDMAVYYCAKGSEFNGYEVRGQGTQVTVSS
Take B8: the binding entry in assay [1] and in assay [2] was “binds” in each case.

B9: 166-D7 (VHH)
VHH: EVQLVESGGGLVQAGGSLRLSCAASGFTFSDTTIGWFRQAPGKEREGISCISTGDGSTYYAESVKGRFTISSDNAKNTVYLQMNSLNPEDTAVYYCALDQAPLWSTWSAPYEYDYWGQGTQVTVSS
notes: Nanobody
Take B9: the binding entry in assay [3], in assay [4] and in assay [5] was “binds” in each case.

B10: 170-F2 (VHH)
VHH: EVQLVESGGGLVQAGGSLRLSCAASGIFIIDTMGWYRQAPGKQRELVASITPTGNTNYVDSVKGRFAISRDNNKNTMHLQMNSLKPEDTAVYYCNAVYPRYYGDDDRPPVDSWGQGTRVTVSS
Take B10: the binding entry in assay [1] and in assay [2] was “binds” in each case.

B11: 171-H2 (VHH)
VHH: EVQLVESGGGLVQAGGSLRLSCAASGRPFSMYAMGWFRQAPGKEREFVTVITWSGGSTYYADSVKGRFTISKDIAKNTVYLQMNSLKPDDMAVYYCAAARRYGNLYNTNNYDYWGQGTQVTVSS
Turning to B11, the binding entry in assay [1] and in assay [2] was “binds” in each case.

B12: 170-H1 (VHH)
VHH: EVQLVESGGGLAQAGGSLRLSCAASGSISSINVMGWYRQAPGKQRDLVAVITRALNTNYATSVKGRFTISRDDFKDTVYLQMNSLEPEDTAVYYCNAGGYYTNLRTGGNYWGQGTQVTVSS
For the molecule B12, the binding result in assay [1] and in assay [2] was “binds” each time.

B13: 170-G3 (VHH)
VHH: EVQLVESGGGLVQAGGSLRLSCAASETIFASAMGWYRQPPGKQRELVARITRGGSTNYAESVKGRFAISRDNADSTLYLRMNNLKPEDTAVYYCNADTIGHSSSYITYWGQGTQVTVSS
Turning to B13, the binding result in assay [1] and in assay [2] was “binds” each time.

B14: 171-G2 (VHH)
VHH: EVQLVESGGGLVQAGGSLRLSCTASGLTFSMYAMAWIRLAPGKEREVIAAIDWSGGSTFYGDSVKGRFTISRDNAKNTVYLEMNSLKPEDTAVYYCAANRRIYSSGSSLSDNSLYNFWGQGTQVTVSS
B14: the binding result in assay [1] and in assay [2] was “binds” throughout.
